Some of the results follow.
Compound: Cc1cc(ccc1-c1ccccc1)C(=O)N1CCCN(CC1)C(=O)CCl [compound 10]
Assay: probe-labelled cysteine peptide fold change vs DMSO (competition) (log2 fold change); higher = less target engagement (more negative = stronger competition)
Conditions: THP-1, incubation time: 4 h
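Also: competitive profiling in live THP-1 cells: cysteine peptides tagged with an iodoacetamide desthiobiotin (IA-DTB) probe, intensity after compound treatment relative to DMSO-treated cells.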

Chains of the proteins cited; added tags and fusions are not shown. Lines headed by an entry give the natural chain unless they say otherwise; changes in a name come on top.
UniProt Q7Z3K3: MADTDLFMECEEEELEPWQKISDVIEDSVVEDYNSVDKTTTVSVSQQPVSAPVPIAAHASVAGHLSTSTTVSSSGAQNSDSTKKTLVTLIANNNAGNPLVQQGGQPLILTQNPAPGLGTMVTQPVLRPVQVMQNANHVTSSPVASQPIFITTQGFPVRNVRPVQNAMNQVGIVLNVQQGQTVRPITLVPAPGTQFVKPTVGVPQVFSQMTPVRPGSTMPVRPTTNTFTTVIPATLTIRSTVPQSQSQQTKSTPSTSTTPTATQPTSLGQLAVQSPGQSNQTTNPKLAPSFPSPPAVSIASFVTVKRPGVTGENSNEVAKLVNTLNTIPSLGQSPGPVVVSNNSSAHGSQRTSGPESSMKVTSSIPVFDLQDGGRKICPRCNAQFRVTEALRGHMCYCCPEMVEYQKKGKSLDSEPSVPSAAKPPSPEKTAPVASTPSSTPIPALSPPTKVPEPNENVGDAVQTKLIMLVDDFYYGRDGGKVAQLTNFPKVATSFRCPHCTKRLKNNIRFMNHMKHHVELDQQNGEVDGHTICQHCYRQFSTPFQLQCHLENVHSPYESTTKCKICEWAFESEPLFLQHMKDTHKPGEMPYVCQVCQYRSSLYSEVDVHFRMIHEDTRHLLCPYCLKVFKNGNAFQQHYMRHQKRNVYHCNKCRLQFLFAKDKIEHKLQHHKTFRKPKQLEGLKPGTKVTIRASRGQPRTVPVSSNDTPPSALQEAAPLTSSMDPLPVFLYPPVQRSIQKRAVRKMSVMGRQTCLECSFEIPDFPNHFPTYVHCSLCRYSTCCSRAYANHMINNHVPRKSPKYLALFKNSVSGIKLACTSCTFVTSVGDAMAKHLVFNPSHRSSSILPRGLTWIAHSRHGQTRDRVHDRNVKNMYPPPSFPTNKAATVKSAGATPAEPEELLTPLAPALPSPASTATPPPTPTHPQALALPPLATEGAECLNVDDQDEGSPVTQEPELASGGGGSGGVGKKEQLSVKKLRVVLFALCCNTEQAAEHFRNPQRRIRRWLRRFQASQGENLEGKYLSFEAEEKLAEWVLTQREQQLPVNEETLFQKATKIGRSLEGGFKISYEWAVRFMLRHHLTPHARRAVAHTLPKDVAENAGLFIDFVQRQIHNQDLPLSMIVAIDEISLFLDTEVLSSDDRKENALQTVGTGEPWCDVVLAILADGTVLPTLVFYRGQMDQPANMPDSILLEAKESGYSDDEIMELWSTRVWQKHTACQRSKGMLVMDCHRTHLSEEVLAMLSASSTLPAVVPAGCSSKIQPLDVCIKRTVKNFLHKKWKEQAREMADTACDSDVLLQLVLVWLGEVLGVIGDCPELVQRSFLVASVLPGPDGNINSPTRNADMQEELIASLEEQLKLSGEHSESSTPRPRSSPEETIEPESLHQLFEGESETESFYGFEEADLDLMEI
UniProt P16435: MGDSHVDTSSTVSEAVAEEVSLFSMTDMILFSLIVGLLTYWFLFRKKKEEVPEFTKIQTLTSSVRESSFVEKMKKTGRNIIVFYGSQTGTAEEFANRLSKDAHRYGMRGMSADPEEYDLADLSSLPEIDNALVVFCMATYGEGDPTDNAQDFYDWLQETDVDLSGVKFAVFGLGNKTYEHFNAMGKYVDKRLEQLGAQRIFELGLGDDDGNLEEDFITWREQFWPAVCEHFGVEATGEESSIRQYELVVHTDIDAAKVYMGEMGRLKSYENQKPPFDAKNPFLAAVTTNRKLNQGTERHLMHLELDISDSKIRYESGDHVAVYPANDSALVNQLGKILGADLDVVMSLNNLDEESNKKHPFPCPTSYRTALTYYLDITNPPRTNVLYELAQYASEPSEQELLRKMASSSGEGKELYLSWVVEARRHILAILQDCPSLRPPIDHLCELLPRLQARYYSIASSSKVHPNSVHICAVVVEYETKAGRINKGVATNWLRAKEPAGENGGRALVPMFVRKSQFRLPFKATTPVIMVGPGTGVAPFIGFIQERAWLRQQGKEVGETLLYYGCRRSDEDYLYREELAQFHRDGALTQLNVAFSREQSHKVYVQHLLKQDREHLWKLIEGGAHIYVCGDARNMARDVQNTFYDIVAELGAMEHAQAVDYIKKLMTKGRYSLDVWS
UniProt P28340: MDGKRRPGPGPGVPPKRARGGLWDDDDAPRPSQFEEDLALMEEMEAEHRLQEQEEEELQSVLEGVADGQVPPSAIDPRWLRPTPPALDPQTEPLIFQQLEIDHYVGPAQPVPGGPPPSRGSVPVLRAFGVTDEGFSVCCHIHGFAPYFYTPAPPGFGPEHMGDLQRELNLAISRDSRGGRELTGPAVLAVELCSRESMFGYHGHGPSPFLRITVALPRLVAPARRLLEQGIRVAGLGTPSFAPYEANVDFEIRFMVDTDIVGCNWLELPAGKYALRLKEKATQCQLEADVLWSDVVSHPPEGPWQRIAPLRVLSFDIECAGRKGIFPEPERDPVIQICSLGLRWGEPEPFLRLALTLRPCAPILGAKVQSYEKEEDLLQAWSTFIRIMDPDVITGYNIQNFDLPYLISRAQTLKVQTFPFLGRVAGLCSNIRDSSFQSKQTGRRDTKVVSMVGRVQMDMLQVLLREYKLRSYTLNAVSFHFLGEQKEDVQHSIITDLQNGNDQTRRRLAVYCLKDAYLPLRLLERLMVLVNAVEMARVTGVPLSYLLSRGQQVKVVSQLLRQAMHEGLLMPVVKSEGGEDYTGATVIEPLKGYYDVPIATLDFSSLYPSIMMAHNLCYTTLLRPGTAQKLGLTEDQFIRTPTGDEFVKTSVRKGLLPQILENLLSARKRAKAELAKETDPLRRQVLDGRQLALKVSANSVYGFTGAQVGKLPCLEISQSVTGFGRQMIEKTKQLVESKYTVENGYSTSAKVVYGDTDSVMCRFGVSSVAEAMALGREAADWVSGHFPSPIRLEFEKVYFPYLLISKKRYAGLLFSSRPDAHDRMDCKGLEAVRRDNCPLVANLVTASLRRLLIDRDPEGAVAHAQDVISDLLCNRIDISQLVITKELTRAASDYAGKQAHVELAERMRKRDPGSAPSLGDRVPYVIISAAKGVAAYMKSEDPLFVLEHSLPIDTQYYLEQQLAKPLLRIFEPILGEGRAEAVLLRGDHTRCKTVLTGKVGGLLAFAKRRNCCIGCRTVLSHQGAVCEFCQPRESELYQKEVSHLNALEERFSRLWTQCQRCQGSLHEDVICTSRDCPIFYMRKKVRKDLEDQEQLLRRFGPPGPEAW
UniProt Q99575: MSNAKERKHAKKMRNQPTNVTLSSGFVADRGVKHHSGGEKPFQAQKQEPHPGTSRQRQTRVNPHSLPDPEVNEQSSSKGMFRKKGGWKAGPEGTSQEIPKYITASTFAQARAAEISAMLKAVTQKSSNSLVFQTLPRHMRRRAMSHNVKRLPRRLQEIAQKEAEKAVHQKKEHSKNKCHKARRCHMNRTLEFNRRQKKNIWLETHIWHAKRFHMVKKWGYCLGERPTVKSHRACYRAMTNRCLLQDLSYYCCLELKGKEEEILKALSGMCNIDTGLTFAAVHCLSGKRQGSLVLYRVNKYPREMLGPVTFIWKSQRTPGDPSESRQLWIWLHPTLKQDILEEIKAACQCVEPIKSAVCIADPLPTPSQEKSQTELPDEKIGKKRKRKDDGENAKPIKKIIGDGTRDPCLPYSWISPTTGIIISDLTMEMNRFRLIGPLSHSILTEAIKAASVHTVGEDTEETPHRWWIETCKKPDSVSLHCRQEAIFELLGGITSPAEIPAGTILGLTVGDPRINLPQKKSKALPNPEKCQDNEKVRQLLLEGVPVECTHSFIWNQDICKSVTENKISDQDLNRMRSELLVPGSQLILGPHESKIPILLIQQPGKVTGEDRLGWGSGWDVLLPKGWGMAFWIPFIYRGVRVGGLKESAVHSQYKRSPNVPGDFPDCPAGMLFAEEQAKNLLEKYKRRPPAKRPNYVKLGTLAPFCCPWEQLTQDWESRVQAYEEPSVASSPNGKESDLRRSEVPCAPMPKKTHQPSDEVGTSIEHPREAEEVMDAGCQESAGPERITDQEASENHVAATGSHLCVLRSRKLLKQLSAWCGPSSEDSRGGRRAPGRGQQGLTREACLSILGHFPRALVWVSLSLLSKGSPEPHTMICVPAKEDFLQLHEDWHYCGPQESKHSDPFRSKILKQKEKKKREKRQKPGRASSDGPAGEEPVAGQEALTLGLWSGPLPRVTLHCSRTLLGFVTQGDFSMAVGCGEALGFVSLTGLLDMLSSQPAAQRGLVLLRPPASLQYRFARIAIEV
UniProt Q96CD2: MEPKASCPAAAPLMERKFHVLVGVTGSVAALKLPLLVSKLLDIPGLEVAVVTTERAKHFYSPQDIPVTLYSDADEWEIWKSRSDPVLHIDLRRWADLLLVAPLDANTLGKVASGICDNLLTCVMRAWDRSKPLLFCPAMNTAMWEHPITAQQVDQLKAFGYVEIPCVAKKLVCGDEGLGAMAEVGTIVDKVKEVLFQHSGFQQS
UniProt Q08752, whole entry, looked up: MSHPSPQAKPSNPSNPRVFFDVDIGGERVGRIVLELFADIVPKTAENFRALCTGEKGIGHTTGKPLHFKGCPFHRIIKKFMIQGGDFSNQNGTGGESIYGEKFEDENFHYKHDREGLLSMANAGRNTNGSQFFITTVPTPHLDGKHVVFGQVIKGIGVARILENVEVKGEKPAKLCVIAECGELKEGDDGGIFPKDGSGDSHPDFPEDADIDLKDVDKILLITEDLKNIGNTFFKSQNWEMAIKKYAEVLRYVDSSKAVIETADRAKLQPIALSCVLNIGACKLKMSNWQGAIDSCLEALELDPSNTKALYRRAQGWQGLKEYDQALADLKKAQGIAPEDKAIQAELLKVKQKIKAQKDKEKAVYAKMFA
UniProt Q13427: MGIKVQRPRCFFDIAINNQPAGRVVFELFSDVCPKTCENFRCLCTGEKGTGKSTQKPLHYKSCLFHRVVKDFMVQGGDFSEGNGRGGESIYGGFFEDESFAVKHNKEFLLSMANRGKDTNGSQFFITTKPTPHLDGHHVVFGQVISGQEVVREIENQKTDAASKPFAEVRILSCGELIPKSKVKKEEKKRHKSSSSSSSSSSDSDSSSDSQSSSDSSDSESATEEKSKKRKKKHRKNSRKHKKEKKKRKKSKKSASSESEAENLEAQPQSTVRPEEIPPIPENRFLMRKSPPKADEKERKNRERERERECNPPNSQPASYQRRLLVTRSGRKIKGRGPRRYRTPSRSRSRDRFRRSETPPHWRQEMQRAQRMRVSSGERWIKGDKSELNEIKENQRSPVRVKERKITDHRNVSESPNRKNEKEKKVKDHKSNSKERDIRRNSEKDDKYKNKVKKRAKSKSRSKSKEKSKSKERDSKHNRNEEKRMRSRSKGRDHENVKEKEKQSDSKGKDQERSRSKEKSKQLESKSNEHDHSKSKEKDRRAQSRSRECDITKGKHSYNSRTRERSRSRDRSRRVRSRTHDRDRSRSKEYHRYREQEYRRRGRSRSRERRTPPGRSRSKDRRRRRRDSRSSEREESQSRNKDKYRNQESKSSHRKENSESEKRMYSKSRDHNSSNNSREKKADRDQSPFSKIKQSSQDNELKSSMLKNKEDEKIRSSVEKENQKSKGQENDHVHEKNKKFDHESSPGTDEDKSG
UniProt Q9Y3C6: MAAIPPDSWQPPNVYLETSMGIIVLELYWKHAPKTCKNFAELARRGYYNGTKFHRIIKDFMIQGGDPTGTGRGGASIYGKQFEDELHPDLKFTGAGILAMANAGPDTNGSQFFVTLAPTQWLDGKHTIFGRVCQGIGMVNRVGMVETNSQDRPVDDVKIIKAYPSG
UniProt Q8WUA2: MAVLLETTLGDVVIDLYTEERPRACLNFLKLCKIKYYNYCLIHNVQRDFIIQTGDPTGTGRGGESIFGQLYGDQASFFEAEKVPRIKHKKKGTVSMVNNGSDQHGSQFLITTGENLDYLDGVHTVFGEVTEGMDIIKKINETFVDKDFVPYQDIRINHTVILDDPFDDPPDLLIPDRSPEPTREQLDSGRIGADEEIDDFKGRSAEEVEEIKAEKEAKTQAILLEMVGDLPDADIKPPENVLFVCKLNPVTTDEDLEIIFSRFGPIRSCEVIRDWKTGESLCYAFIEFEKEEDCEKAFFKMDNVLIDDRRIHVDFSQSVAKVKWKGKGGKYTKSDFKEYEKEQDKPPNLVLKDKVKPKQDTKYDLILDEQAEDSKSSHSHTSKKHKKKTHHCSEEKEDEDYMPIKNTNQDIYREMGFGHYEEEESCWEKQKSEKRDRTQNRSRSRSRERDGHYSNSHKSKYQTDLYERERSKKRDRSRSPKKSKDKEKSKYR
UniProt Q9UNP9: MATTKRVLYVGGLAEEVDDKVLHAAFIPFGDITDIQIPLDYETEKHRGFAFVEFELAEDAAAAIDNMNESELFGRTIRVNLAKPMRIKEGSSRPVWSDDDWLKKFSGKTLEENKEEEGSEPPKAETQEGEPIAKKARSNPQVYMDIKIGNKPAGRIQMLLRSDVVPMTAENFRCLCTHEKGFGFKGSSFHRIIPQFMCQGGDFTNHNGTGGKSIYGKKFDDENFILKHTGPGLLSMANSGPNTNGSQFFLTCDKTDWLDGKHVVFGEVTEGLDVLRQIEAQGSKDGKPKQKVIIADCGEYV

Target	probe-labelled cysteine peptide fold change (10 µM)	probe-labelled cysteine peptide fold change (50 µM)
POLR2A_P24928_1245_INAGFGDDLNCIFNDDNAEK (UniProt P24928)	-0.0487	-0.0948
POTEF_A5A3E0_917_LCYVALDFEQEMATVASSSSLEK (UniProt A5A3E0)	0.126	-0.0637
POGZ_Q7Z3K3_987_VVLFALCCNTEQAAEHFR (UniProt Q7Z3K3)	0.104	-0.122
POLR1A_O95602_746_EGELLCGVLDK (UniProt O95602)	-0.0729	0.0869
POLD3_Q15054_129_SNLQNCSK (UniProt Q15054)	-0.199	-0.204
POLR3B_Q9NW08_272_AMGVESDQEIVQMIGTEEHVMAAFGPSLEECQK (UniProt Q9NW08)	0.303	0.0384
POLE_Q07864_600_HALEEEEKVPVEQVTNFEEVCDEIK (UniProt Q07864)	-0.247	-1.05
POLR2J_P52435_31_VPNACLFTINK (UniProt P52435)	-0.0533	-0.0404
POR_P16435_363_HPFPCPTSYR (UniProt P16435)	-0.0503	-0.032
POLDIP3_Q9BY77_301_VTEEDIVELFCVCGALKR (UniProt Q9BY77)	0.0108	-0.485
POLD1_P28340_837_RDNCPLVANLVTASLRR (UniProt P28340)	-0.269	-0.453
POP1_Q99575_876_GSPEPHTMICVPAK (UniProt Q99575)	-0.284	0.301
POLR3A_O14802_1174_VKPGDVAVHGEAVVCVTPR (UniProt O14802)	0.148	0.185
PPCDC_Q96CD2_7_ASCPAAAPLMER (UniProt Q96CD2)	-0.486	-0.968
PPID_Q08752_275+282_LQPIALSCVLNIGACK (UniProt Q08752)	0.649	0.0405
PPIG_Q13427_310_ECNPPNSQPASYQR (UniProt Q13427)	-0.0237	-0.0502
POLR1A_O95602_1332_CLRPEDILR (UniProt O95602)	-0.466	0.569
POLR2B_P30876_224_SCLENSSRPTSTIWVSMLAR (UniProt P30876)	-0.039	-0.0122
PPIL1_Q9Y3C6_133_VCQGIGMVNR (UniProt Q9Y3C6)	0.145	0.0313
PPIG_Q13427_310_ERECNPPNSQPASYQR (UniProt Q13427)	-0.167	-0.3

Target	probe-labelled cysteine peptide fold change (10 µM)	probe-labelled cysteine peptide fold change (50 µM)
POLR2B_P30876_1137_THTYECR (UniProt P30876)	-0.225	0.00243
POGZ_Q7Z3K3_624_HLLCPYCLK (UniProt Q7Z3K3)	-0.154	-0.364
PPIA_P62937_161_ITIADCGQLE (UniProt P62937)	-0.286	0.106
POLR2A_P24928_981_VVLPCNLLR (UniProt P24928)	-0.423	-0.259
PPIL4_Q8WUA2_294_EEDCEK (UniProt Q8WUA2)	-0.0643	0.126
POP1_Q99575_530_CQDNEK (UniProt Q99575)	-0.0775	-0.249
PPIG_Q13427_174_ILSCGELIPK (UniProt Q13427)	-0.121	-0.315
POGZ_Q7Z3K3_1219_HTACQR (UniProt Q7Z3K3)	-0.0145	-0.198
PPIE_Q9UNP9_176_CLCTHEK (UniProt Q9UNP9)	0.0495	-0.0221
POSTN_Q15063_44_DQGPNVCALQQILGTKK (UniProt Q15063)	-0.609	-0.645
POLK_Q9UBT6_545_SIIGFLQAGNQALSATECTLEK (UniProt Q9UBT6)	-0.695	-0.377
POLD1_P28340_1026_TVLSHQGAVCEFCQPR (UniProt P28340)	-0.0141	-0.243
PPIE_Q9UNP9_198_IIPQFMCQGGDFTNHNGTGGK (UniProt Q9UNP9)	0.0421	-0.134
PPA1_Q15181_254_CDPDAAR (UniProt Q15181)	-0.296	-0.072
PPID_Q08752_282_LQPIALSCVLNIGACK (UniProt Q08752)	0.305	0.183
POLR2B_P30876_892_DCSTFLR (UniProt P30876)	-0.225	-0.0376
POR_P16435_629_LIEGGAHIYVCGDAR (UniProt P16435)	0.0472	0.19
POFUT1_Q9H488_283_STAAPLTMTMCLPDLK (UniProt Q9H488)	-0.0164	-0.0201
POLR2C_P19387_107_CNEDQTR (UniProt P19387)	-0.144	0.194
POR_P16435_363_KHPFPCPTSYR (UniProt P16435)	0.017	0.198

Part of the list above, in markdown.

| Target | probe-labelled cysteine peptide fold change (10 µM) | probe-labelled cysteine peptide fold change (50 µM) |
| --- | --- | --- |
| POP1_Q99575_530_CQDNEK (UniProt Q99575) | -0.0775 | -0.249 |
| POLD1_P28340_1026_TVLSHQGAVCEFCQPR (UniProt P28340) | -0.0141 | -0.243 |

Source: the supplement of paper PMC12067093, “Discovery and optimisation of a covalent ligand for TRIM25 and its application to targeted protein ubiquitination” (Chemical Science, 2025)
